According to patent publication US11364285B2, “Methods, compositions, and molecular targets that exploit synergies and symbioses in the termite gut” (priority 2016, dated 2022):
For some assays here: At least one compound was matched to its structure with a doubt left. Some results were stated once for a whole list of compounds, not compound by compound.

Legend:
[1] = system: Reticulitermes flavipes; assay: Termite behavior and pathology observed in the bioassays (grooming, tunneling, light repellency); assay type: in vivo; conditions: post-exposure; sub-lethal imidacloprid concentrations
[2] = system: amidohydrolase 2 gene; assay: qPCR of amidohydrolase 2 expression after kanamycin treatment and B. bassiana challenge; assay type: in vivo, R. flavipes; conditions: 5% kanamycin
Source text: To investigate whether symbiont removal reduced amidohydrolase expression, groups of 10 workers from three independent colonies were subjected to a treatment of 5% kanamycin (controls received water only) for 48-hours and subsequently challenged with a low dose of B. bassiana conidia (as above). 5% Kanamycin was used for bacterial symbiont removal based on extensive preliminary research. These bioassays were held for 48-hours before termite guts were dissected for RNA extraction. cDNA was synthesized using the Bioline SensiFast cDNA Synthesis kit using 1 μg total RNA as template. qPCR was performed using the SensiFast no ROX SYBR Master Mix (Bioline) and amidohydrolase 2 gene specific primers as well as Actin 5C as a reference gene (see Table S.2 of the Peterson & Scharf Article).

| SMILES | Time by which impacts on tunneling and grooming behaviors were observed [1] [h] | Effect on B. bassiana-mediated induction of amidohydrolase 2 [2] |
| --- | --- | --- |
| O=[N+]([O-])NC1=NCCN1Cc1ccc(Cl)nc1 [I, imidacloprid] | ≤ 24 |  |
| NC[C@H]1O[C@H](O[C@H]2[C@H](O)[C@@H](O[C@H]3O[C@H](CO)[C@@H](O)[C@H](N)[C@H]3O)[C@H](N)C[C@@H]2N)[C@H](O)[C@@H](O)[C@@H]1O [kanamycin] |  | mitigated |
